Results as given in article PMC5609986.
These are yes or no findings as the source states them, for the method shown. In cells and extracts the contact can be indirect. Some results given as binding are weak or reduced against the parent protein; the word gives no strength.

Protein sequences, listed by entry. Tags and fused reporters are not part of them.
UniProt Q9P0L2: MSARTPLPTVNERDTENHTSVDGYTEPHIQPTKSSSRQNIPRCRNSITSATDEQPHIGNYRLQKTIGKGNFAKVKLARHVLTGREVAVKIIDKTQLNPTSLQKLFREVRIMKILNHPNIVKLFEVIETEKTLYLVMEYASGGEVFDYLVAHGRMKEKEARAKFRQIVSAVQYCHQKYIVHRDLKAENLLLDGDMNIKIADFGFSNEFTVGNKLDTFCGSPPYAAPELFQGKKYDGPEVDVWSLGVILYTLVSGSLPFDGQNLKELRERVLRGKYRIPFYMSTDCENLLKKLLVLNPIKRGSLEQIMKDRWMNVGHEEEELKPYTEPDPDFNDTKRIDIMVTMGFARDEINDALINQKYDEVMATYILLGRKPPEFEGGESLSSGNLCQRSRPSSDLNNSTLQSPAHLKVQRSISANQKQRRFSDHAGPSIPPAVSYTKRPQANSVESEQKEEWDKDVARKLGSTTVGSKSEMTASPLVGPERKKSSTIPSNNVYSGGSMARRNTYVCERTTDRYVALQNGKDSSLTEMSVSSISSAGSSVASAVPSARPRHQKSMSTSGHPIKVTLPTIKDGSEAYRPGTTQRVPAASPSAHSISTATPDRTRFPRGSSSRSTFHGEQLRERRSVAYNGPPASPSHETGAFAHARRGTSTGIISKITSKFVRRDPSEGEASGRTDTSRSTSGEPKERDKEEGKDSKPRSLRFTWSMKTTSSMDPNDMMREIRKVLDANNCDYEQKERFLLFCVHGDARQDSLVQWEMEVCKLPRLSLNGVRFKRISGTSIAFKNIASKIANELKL

Target: T1, USP21 deubiquitylating enzyme (human (endogenous in HEK293T)) (UniProt Q9UK80)
T1 sequence: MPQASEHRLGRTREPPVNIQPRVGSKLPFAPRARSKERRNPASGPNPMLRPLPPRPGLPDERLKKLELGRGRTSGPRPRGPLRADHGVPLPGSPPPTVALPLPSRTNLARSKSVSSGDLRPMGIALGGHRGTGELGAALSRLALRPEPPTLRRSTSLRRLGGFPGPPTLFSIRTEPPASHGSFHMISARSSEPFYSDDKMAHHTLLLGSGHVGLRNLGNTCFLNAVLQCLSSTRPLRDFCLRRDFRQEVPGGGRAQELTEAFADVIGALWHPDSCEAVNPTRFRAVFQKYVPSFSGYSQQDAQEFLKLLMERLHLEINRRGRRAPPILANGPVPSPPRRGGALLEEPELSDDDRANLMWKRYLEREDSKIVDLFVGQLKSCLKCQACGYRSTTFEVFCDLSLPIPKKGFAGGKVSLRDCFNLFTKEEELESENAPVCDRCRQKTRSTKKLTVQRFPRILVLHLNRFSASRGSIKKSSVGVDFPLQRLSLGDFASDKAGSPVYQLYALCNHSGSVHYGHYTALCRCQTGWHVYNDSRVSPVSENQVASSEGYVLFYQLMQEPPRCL
Test: co-IP; endogenous proteins; HEK293T cells pretreated overnight with 5 uM MG132; lysed in PLC buffer (50 mM Hepes pH 7.5, 150 mM NaCl, 5 % glycerol, 0.5 % Triton X-100, 1.5 mM MgCl2, 1 mM EGTA, RNAase A, DTT, Na3VO4); antibodies against USP21, MARK1 or isotype control on protein A/G agarose, overnight at 4°C; Western blot

Microtubule affinity-regulating kinase 1 (MARK1) (from UniProt Q9P0L2 1-795) (enzyme)
binding: binds
